According to US20230114107A1, “COMBINATION ANTI-CANCER THERAPIES WITH INDUCERS OF IRON-DEPENDENT CELLULAR DISASSEMBLY” (Flagship Pioneering Innovations V, Inc., priority 2019, published 2023):
For at least one compound, name, drawing or mass did not settle the structure.

Tests used:
[1] = tested on: NFKB reporter in THP1-Dual cells; assay: NFKB reporter activity in THP1-Dual monocytes co-cultured with treated Caki-1 cells; type: cell-based, human; details: Caki-1 cells treated 24 hours, co-culture 24 hours; vs DMSO; FIG. 3B, 4B
Procedure: Caki-1 renal cell carcinoma cells were treated with either control (DMSO) or various doses of Erastin, for 24 hours prior to co-culture with THP1-Dual cells for an additional 24 hours. Erastin was purchased from Selleckchem (Houston, Tex.) and dissolved in DMSO. Subsequently, the THP1 supernatants were assessed for NFKB or IRF reporter activity. Caki-1 cells were acquired from ATCC and THP1-Dual cells acquired from InvivoGen (San Diego, Calif.). Both cell types were cultured in 96-well plates for the duration of the assay. 7,500 Caki-1 cells were plated 24 hours prior to dosing with Erastin, with a final DMSO concentration of 0.5%. 24 hours post-treatment, THP1-Dual cells (25,000 cells/well) were added to the Caki-1 cells. 24 hours later, 30 μl of supernatant was mixed with either 200 μl QuantiBlue (InvivoGen) or 50 μl QuantiLuc and absorbance or luminescence was recorded on a Molecular Devices plate reader. […] Subsequently, the THP1 supernatants were assessed for NFKB or IRF reporter activity. […] 24 hours later, 30 μl of supernatant was mixed with either 200 μl QuantiBlue (InvivoGen, San Diego, Calif.) or 50 μl QuantiLuc and absorbance or luminescence was recorded on a Molecular Devices plate reader. […] Subsequently, the THP1 supernatant was assessed for NFKB reporter activity. […]

[2] = tested on: NFkB reporter in THP1 monocytes; assay: Screen for innate immune activation: NFkB reporter in THP1 monocytes added to drug-treated HT-1080 cells; type: cell-based, human; details: over 100 FDA-approved anticancer drugs and 6 inducers of ferroptosis; FIG. 17
Procedure: Over 100 FDA-approved anticancer drugs and 6 inducers of ferroptosis were evaluated for their ability to induce innate immune activation, as measured by induction of an NFkB reporter in THP1 monocytes in vitro. The source of the approved anticancer drug compounds was plate Approved Oncology Drug (AOD) IX, available from the National Cancer Institute, Division of Cancer Treatment and Diagnosis (dtp.cancer.gov/organization/dscb/obtaining/available_plates.htm). Briefly, 20,000-30,000 HT-1080 cells were plated per well in 96 well plates, and 10 μl each of compounds from the AOD IX plates were added to each well, for a final compound concentration of 10 PM. The six inducers of ferroptosis listed above were also included in the experiment, as a comparison. After addition of the drug, cells were incubated overnight, and 50,000 THP-1 reporter cells were added to each well on the following day. Reporter induction was measured by colorimetry 48h after reporter cell addition.

[3] = tested on: Caki-1 renal cell carcinoma cells; assay: Viability of Caki-1 renal cell carcinoma cells after treatment; type: cell-based; details: various doses, 24 hours; FIG. 3A, 4A
[4] = tested on: NFKB reporter in THP1-Dual cells; assay: NFKB reporter activity in THP1-Dual monocytes co-cultured with treated HT1080 cells; type: cell-based, human
Procedure: HT1080 fibrosarcoma cells were treated with either control (DMSO) or various doses of Erastin, piperazine erastin (PE), or imidazole ketoerastin (IKE) for 24 hours prior to co-culture with THP1-Dual cells for an additional 24 hours. Erastin was purchased from Selleckchem (Houston, Tex.) and dissolved in DMSO. Subsequently, the THP1 supernatants were assessed for nuclear factor kappa-light-chain-enhancer of activated B cells (NFKB) or interferon regulatory factor (IRF) reporter activity.
HT1080 cells were acquired from ATCC and THP1-Dual cells were acquired from InvivoGen (San Diego, Calif.). THP1-Dual cells are human monocyte cells that induce reporter proteins upon activation of either NFKB or IRF pathways. Both cell types were cultured in 96-well plates for the duration of the assay. HT1080 cells were cultured in DMEM with 10% FBS, and THP1-Dual cells were cultured in RPMI with 10% FBS. 7,500 HT1080 cells were plated 24 hours prior to dosing with Erastin, PE, or IKE, with a final DMSO concentration of 0.5%. […] 24 hours later, 30 μl of supernatant was mixed with either 200 μl QuantiBlue (InvivoGen, San Diego, Calif.) (for NFKB reporter activity) or 50 μl QuantiLuc (for IRF reporter activity) and absorbance or luminescence was recorded on a Molecular Devices plate reader.
HT1080 fibrosarcoma cells were treated with various doses of Erastin (e.g. […], 0.16, 0.31, 0.63, 1.25, 2.5, 5, 10 or 20 μM) alone or in combination with a ferroptosis inhibitor (1 μM Ferrostatin-1, 1 μM Liproxstatin-1, 100 μM Trolox, 25 μM β-Mercaptoethanol or 100 μM Deferoxamine) for 24 hours prior to co-culture with THP1-Dual cells for an additional 24 hours. […] Subsequently, the THP1 supernatant was assessed for NFKB activity. […]
HT1080 fibrosarcoma cells were treated with various doses of Erastin (ferroptosis inducer), docetaxel (apoptosis inducer) or H2O2 (necrosis inducer) for 24 hours prior to co-culture with THP1-Dual cells for an additional 24 hours. […] Subsequently, the THP1 supernatants were assessed for nuclear factor kappa-light-chain-enhancer of activated B cells (NFKB). […]

[5] = tested on: HT1080 fibrosarcoma cells; assay: Viability of HT1080 fibrosarcoma cells after 24 h treatment; type: cell-based; details: for viability of HT1080 cells: various doses
[6] = tested on: PANC1 pancreatic cancer cells; assay: Viability of PANC1 pancreatic cancer cells after treatment; type: cell-based; details: various doses, 24 hours; FIG. 2A
[7] = tested on: NFKB reporter in THP1-Dual cells; assay: NFKB reporter activity in THP1-Dual monocytes co-cultured with treated PANC1 cells; type: cell-based, human; details: PANC1 cells treated 24 hours, co-culture 24 hours; vs DMSO

Q: Which “NFKB signaling in THP1 monocytes” value [1] does the source give for `CCOc1ccccc1-n1c(C(C)N2CCN(C(=O)COc3ccc(Cl)cc3)CC2)nc2ccccc2c1=O` (centres unmarked) [Erastin] here?
A: The value was “elicited NFKB signaling in THP1 monocytes”.

Q: What about the “rank among all compounds tested as inducer of innate immune signaling” value [2] of the same molecule?
A: The value was “among the top ten most effective inducers of innate immune signaling”.

Q: And the “viability of Caki-1 cells” value [3]?
A: Its value is “negatively affected the viability”.

Q: What about the “NFKB signaling in THP1 monocytes” value ([4]; HT1080 cells treated 24 hours, co-culture 24 hours, vs DMSO, FIG. 1B, 1D) of the same molecule?
A: Its value is “elicited NFKB signaling in THP1 monocytes”.

Q: And the “NFKB activity in THP1 cells, dose dependence” value ([4]; HT1080 cells treated with Erastin alone, FIG. 7B, 8B)?
A: The value was “increased NFKB activity in THP1 cells in a dose dependent manner”.

Q: What about the “NFKB signaling in THP1 monocytes” value ([4]; HT1080 cells treated with ferroptosis, apoptosis or necrosis inducer, FIG. 15B) of the same molecule?
A: Its value is “elicited large increases in NFKB signaling”.

Q: What about the “viability of HT1080 fibrosarcoma cells, dose dependence” value ([5]; Erastin alone, various doses up to 20 μM, FIG. 7A, 8A) of the same molecule?
A: The value was “decreased viability of the cells in a dose dependent manner”.

Q: What about the “viability of HT1080 cells” value ([5]; ferroptosis, apoptosis, necrosis inducers compared, FIG. 15A) of the same molecule?
A: The value was “negatively affected the viability”.

Q: What about the “viability of HT1080 cells” value ([5]; FIG. 1A, 1C) of the same molecule?
A: The value was “negatively affected the viability”.

Q: And the “viability of PANC1 cells” value [6]?
A: Its value is “negatively affected the viability”.

Q: And the “NFKB signaling in THP1 monocytes” value [7]?
A: The value was “elicited NFKB signaling in THP1 monocytes”.
